PubChem BioAssay AID1259405, NCATS | 2018

Screen: 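Mouse-designed siRNAs used to find CHO productivity engineering targets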 (primary screen)
System: Chinese hamster CHO-K1 ovary cells with stable secreted eGFP expression
Reagent: single siRNA against mouse genes, 0.8 pmol siRNA per well (2 µl of 400 nM stock)
Time to read-out: 3 days
Read-out: 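Per-well intracellular GFP measured by laser scanning cytometry, plus viability from ATP luminescence, each relative to plate median of non-targeting control wells, in %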
Reading the numbers: GFP, % of control: higher = more GFP per well, higher productivity; viability (ATP), % of control: higher = more viable cells (more ATP)
Hit rule: 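Called active when intracellular GFP, relative to negative control, is at or above 120%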
This is an unselected part of about 50,000 reagents tested. About 4,000 of them (8%) were called active. 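Mouse siRNA library applied to hamster cells; one well for each siRNA.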 Reagents against one gene are numbered here.

Gene | reagent | GFP, % of control | viability (ATP), % of control | Call
Ntf3 (neurotrophin 3) | 1 | 95.4 | 67.6 | inactive
Ntf3 (neurotrophin 3) | 2 | 103 | 65.1 | inactive
Ntf3 (neurotrophin 3) | 3 | 60.2 | 65.7 | inactive
Lman1 (lectin, mannose-binding, 1) | 1 | 55 | 72.2 | inactive
Lman1 (lectin, mannose-binding, 1) | 2 | 67.8 | 68.3 | inactive
Tent5b (terminal nucleotidyltransferase 5B) | 1 | 127 | 60.1 | active
Tent5b (terminal nucleotidyltransferase 5B) | 2 | 83.2 | 72.2 | inactive
Tent5b (terminal nucleotidyltransferase 5B) | 3 | 75.1 | 96.7 | inactive
Etaa1 (Ewing tumor-associated antigen 1) | 1 | 119 | 87.5 | inactive
Etaa1 (Ewing tumor-associated antigen 1) | 2 | 74.5 | 69.5 | inactive
Etaa1 (Ewing tumor-associated antigen 1) | 3 | 119 | 115 | inactive
Lrp8 | 1 | 74.5 | 66.4 | inactive
Lrp8 | 2 | 71.7 | 86.2 | inactive
Lrp8 | 3 | 85.6 | 49 | inactive
Slc1a7 | 1 | 61.8 | 70.8 | inactive
Slc1a7 | 2 | 78.9 | 37.9 | inactive
Slc1a7 | 3 | 74.2 | 104 | inactive
Or2n1d (olfactory receptor family 2 subfamily N member 1D) | 1 | 60.9 | 73.4 | inactive
Or2n1d (olfactory receptor family 2 subfamily N member 1D) | 2 | 51.9 | 65.2 | inactive
Or2n1d (olfactory receptor family 2 subfamily N member 1D) | 3 | 85.7 | 88.4 | inactive
F830208F22Rik (RIKEN cDNA F830208F22 gene) | 1 | 72.4 | 81.7 | inactive
F830208F22Rik (RIKEN cDNA F830208F22 gene) | 2 | 72.8 | 75.3 | inactive
F830208F22Rik (RIKEN cDNA F830208F22 gene) | 3 | 59.9 | 60.1 | inactive
Fads1 (fatty acid desaturase 1) | 1 | 107 | 123 | inactive
Fads1 (fatty acid desaturase 1) | 2 | 38 | 44.4 | inactive

A portion of the results above, for reference:
Gene | reagent | GFP, % of control | viability (ATP), % of control | Call
Slc1a7 | 3 | 74.2 | 104 | inactive
Or2n1d (olfactory receptor family 2 subfamily N member 1D) | 1 | 60.9 | 73.4 | inactive
Or2n1d (olfactory receptor family 2 subfamily N member 1D) | 2 | 51.9 | 65.2 | inactive
Or2n1d (olfactory receptor family 2 subfamily N member 1D) | 3 | 85.7 | 88.4 | inactive
F830208F22Rik (RIKEN cDNA F830208F22 gene) | 1 | 72.4 | 81.7 | inactive
F830208F22Rik (RIKEN cDNA F830208F22 gene) | 2 | 72.8 | 75.3 | inactive

More entries follow:
Gene | reagent | GFP, % of control | viability (ATP), % of control | Call
Or7e173 (olfactory receptor family 7 subfamily E member 173) | 1 | 114 | 82.4 | inactive
Or7e173 (olfactory receptor family 7 subfamily E member 173) | 2 | 55.7 | 56.5 | inactive
Or7e173 (olfactory receptor family 7 subfamily E member 173) | 3 | 95.9 | 127 | inactive
G6pc1 (glucose-6-phosphatase catalytic subunit 1) | 1 | 111 | 104 | inactive
G6pc1 (glucose-6-phosphatase catalytic subunit 1) | 2 | 126 | 73.9 | active
G6pc1 (glucose-6-phosphatase catalytic subunit 1) | 3 | 113 | 91.3 | inactive
Atp5f1c (ATP synthase F1 subunit gamma) | 1 | 107 | 67.2 | inactive
Atp5f1c (ATP synthase F1 subunit gamma) | 2 | 65.8 | 77.8 | inactive
Atp5f1c (ATP synthase F1 subunit gamma) | 3 | 47.6 | 61.1 | inactive
Gga2 | 1 | 88.7 | 61.5 | inactive
Gga2 | 2 | 96.5 | 83 | inactive
Gga2 | 3 | 96.1 | 72.6 | inactive
Ddx56 (DEAD box helicase 56) | 1 | 70.9 | 55.4 | inactive
Ddx56 (DEAD box helicase 56) | 2 | 61.6 | 40 | inactive
Ddx56 (DEAD box helicase 56) | 3 | 71.6 | 64.7 | inactive
Slc31a1 | 1 | 110 | 97.4 | inactive
Slc31a1 | 2 | 62 | 83.6 | inactive
Slc31a1 | 3 | 72.3 | 71.7 | inactive
Ly6g2 (lymphocyte antigen 6 family member G2) | 1 | 96.6 | 90.8 | inactive
Ly6g2 (lymphocyte antigen 6 family member G2) | 2 | 77 | 68.9 | inactive
Ly6g2 (lymphocyte antigen 6 family member G2) | 3 | 160 | 166 | active
Dnajb5 (DnaJ heat shock protein family (Hsp40) member B5) | 1 | 68.9 | 73 | inactive
Dnajb5 (DnaJ heat shock protein family (Hsp40) member B5) | 2 | 72.1 | 80.1 | inactive
Dnajb5 (DnaJ heat shock protein family (Hsp40) member B5) | 3 | 55.7 | 105 | inactive
Prnd (prion like protein doppel) | 1 | 80.6 | 107 | inactive
Prnd (prion like protein doppel) | 2 | 68.7 | 74.5 | inactive
Prnd (prion like protein doppel) | 3 | 64.2 | 98.8 | inactive
Hp (haptoglobin) | 1 | 70.1 | 88 | inactive
Hp (haptoglobin) | 2 | 51.1 | 35.3 | inactive
Hp (haptoglobin) | 3 | 52.8 | 71.5 | inactive
Cnksr2 (connector enhancer of kinase suppressor of Ras 2) | 1 | 117 | 82.2 | inactive
Cnksr2 (connector enhancer of kinase suppressor of Ras 2) | 2 | 82.2 | 79 | inactive
Cnksr2 (connector enhancer of kinase suppressor of Ras 2) | 3 | 77.3 | 100 | inactive
